The other results are listed elsewhere or left out.
These sequences were tested against T1, OsSMF1 (Oryza sativa, UniProt Q6ZLB0 1-436) (assay: protein-binding microarray (RPBM); PBS, 2% BSA, 51.3 ng/ul salmon testes DNA, 50 uM zinc acetate, 200 nM TF, 25 C, 1 h; high values mean tight binding). Conditions: protein: recombinant; tags: N-terminal polyhistidine and DsRed monomer fusion (pET32a); chain copies: 2; label: CyDye5-dUTP incorporated in the synthesized complementary strand; 3' TTTTT single-stranded linker to array surface; dsDNA, one strand shown.
T1 sequence: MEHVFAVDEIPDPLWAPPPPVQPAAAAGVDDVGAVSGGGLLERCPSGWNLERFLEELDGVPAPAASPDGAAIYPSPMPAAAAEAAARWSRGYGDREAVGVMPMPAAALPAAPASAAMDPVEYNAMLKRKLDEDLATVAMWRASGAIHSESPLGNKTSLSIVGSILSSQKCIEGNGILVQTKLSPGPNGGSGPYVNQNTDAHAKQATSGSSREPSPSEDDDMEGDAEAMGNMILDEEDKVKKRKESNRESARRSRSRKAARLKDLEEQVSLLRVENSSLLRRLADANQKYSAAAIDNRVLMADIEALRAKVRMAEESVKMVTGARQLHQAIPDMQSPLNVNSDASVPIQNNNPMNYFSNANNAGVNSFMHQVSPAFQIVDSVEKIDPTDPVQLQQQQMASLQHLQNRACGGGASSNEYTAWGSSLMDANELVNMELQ
Procedure, shortened: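 Using Ni–NTA, transcription factors fused N-terminally to polyhistidine and DsRed were purified after expression in E. coli BL21-CodonPlus. These were incubated at 200 nM with a blocked, double-stranded custom Agilent array for 1 h at 25 °C in a buffer containing 50 µM zinc acetate, and the array was washed. The binding signal is per-feature fluorescence intensity (arbitrary units) on an Axon 4000B scanner.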
With “TGTACCTGCAACCACAGTTTAGCACATTCTAATTCGAAATCGGAGTCACCTAGTGCAG” the binding signal was 4630 fluorescence intensity (a.u.). For “CATGTCTTCCGCCGCCGTTGCCAGATGACACGGCAGCCACCGGAGTCACCTAGTGCAG”, the binding signal was 4820 fluorescence intensity (a.u.). With “TTGTTAATCACAACACCAGGTACATCGTCAAGTTCAACTTCGGAGTCACCTAGTGCAG” the binding signal was 30700 fluorescence intensity (a.u.). With “AGGTTGGAATCGACGTTTCGTCGTAGCCGTCCATAGGAAACGGAGTCACCTAGTGCAG” the binding signal was 31100 fluorescence intensity (a.u.). “TCTTGCCAGTGTGCCATGTGTAATGTTGTTCAGTGAAATGCGGAGTCACCTAGTGCAG” was tested, and the binding signal was 4010 fluorescence intensity (a.u.). With “GCGCAGGACGTGGGCGGTGGAGTCCCGGGGATACGTGTAGCGGAGTCACCTAGTGCAG” the binding signal was 4130 fluorescence intensity (a.u.). “GCGCAAGTTCTCCACAAGCCACCTCGATCGATCTCCATTGCGGAGTCACCTAGTGCAG” was tested, and the binding signal was 3420 fluorescence intensity (a.u.). With “CCTCACCATTCGAGCTGGACGTGGTGAGTGACGTGGTTGACGGAGTCACCTAGTGCAG” the binding signal was 15100 fluorescence intensity (a.u.). For “CCGCTTCTCCGGAAACTAGCCGTTGGGGCGCCGCCGCCGCCGGAGTCACCTAGTGCAG”, the binding signal was 27200 fluorescence intensity (a.u.). With “ACAAGCCACGTAGGCGCCACGTCAGCCAAAACCGCCTTCACGGAGTCACCTAGTGCAG” the binding signal was 44100 fluorescence intensity (a.u.). In the case of “TCGTGGATGTGAGGTTGCCGGCTATTGCCGTCATCACTGACGGAGTCACCTAGTGCAG”, the binding signal was 3160 fluorescence intensity (a.u.). In the case of “CGTACCGTTCGGATCTGGTCATCGTGTACGGAGGAGGAAACGGAGTCACCTAGTGCAG”, the binding signal was 3760 fluorescence intensity (a.u.). With “CCCTTACTGATTGGACGGTCCCGCGCATAAGCATGCGCACCGGAGTCACCTAGTGCAG” the binding signal was 18600 fluorescence intensity (a.u.). With “GTGGGAGAGGCCGGCCGAGGGGAGGAGAGGGGAGGGGTGCCGGAGTCACCTAGTGCAG” the binding signal was 4960 fluorescence intensity (a.u.). “CCCCGCCGGAATCCGCGGCGAGCGGCGAGCGTCCCGAGCCCGGAGTCACCTAGTGCAG” was tested, and the binding signal was 3400 fluorescence intensity (a.u.). In the case of “CACAGATATTAGTGACGGTGGATAGTTTTGTAAAATTCTGCGGAGTCACCTAGTGCAG”, the binding signal was 4630 fluorescence intensity (a.u.). With “GTAGTACTACAACTCTACAAGCCACAGACAGGAAACAGGACGGAGTCACCTAGTGCAG” the binding signal was 3880 fluorescence intensity (a.u.). In the case of “GATTCCTTTTCGAATATTTACGTGTACATAACAAATTCCTCGGAGTCACCTAGTGCAG”, the binding signal was 3910 fluorescence intensity (a.u.). “AGAGCAAATTCTCTGATTCATCTCGCACGTAACGTAACGTCGGAGTCACCTAGTGCAG” was tested, and the binding signal was 3330 fluorescence intensity (a.u.). In the case of “GACCAGAGTTCAGTTCACCGCTGACTGACATAAATAAATGCGGAGTCACCTAGTGCAG”, the binding signal was 3530 fluorescence intensity (a.u.). For “TCCAGATCTTGGCGCCGCCGGATCCCGTCAGTCTCCACAACGGAGTCACCTAGTGCAG”, the binding signal was 48300 fluorescence intensity (a.u.). “AAGGCTCCTCACCTCCTTGGGATCTTGTGCTTGGGCGCGTCGGAGTCACCTAGTGCAG” was tested, and the binding signal was 17900 fluorescence intensity (a.u.). For “CACTCTAAGCCAAATGCCCCAGTTGGAGCAAGGTATTCACCGGAGTCACCTAGTGCAG”, the binding signal was 3840 fluorescence intensity (a.u.). “TTCCTCAATCTCCAAGCCTCGATATCCGTGTTCTTCTCTGCGGAGTCACCTAGTGCAG” was tested, and the binding signal was 3660 fluorescence intensity (a.u.). In the case of “TTTATATCATATATATCCATTGCAAGCATAGGCCTTTAGCCGGAGTCACCTAGTGCAG”, the binding signal was 32400 fluorescence intensity (a.u.). With “TTTGAAAATAATACTCCCTCCGTTTCATAATATAAGTGATCGGAGTCACCTAGTGCAG” the binding signal was 3260 fluorescence intensity (a.u.). With “CGCTGCGGGGAGTCGGCGCTTCGTCGGAGGCGGCGGGGCGCGGAGTCACCTAGTGCAG” the binding signal was 3230 fluorescence intensity (a.u.). For “GTCCACCGTGGACTTCTCCAAGTCCACGTCTTCGTGCGACCGGAGTCACCTAGTGCAG”, the binding signal was 4160 fluorescence intensity (a.u.). With “ATTGCAATGGAGTGTGGTGACGAGATGCCCACTGGTGACACGGAGTCACCTAGTGCAG” the binding signal was 3750 fluorescence intensity (a.u.). In the case of “TTCATCCTGGTGAAACTCGTCAGCGTCGTTTCCAAGTCCTCGGAGTCACCTAGTGCAG”, the binding signal was 6150 fluorescence intensity (a.u.). With “AATTAGGCTCAATAGATTCGTGTCGCGAATTAGTCCAAGACGGAGTCACCTAGTGCAG” the binding signal was 3250 fluorescence intensity (a.u.). In the case of “AGGGCGGCGGTGGCGGCACTGGCCTGGCAGGGGTGGGAGTCGGAGTCACCTAGTGCAG”, the binding signal was 3670 fluorescence intensity (a.u.). With “TAATTGTATTGGGTGCATACATTATATTTATTAGGGTGATCGGAGTCACCTAGTGCAG” the binding signal was 26800 fluorescence intensity (a.u.). “CGAGGGAGTGGAGCAGGTTGGGACGCGTACTGACGTGAGACGGAGTCACCTAGTGCAG” was tested, and the binding signal was 36100 fluorescence intensity (a.u.). In the case of “AGGATAACCTCATCACTTTGGACTGGAGGGAGTACTTAGACGGAGTCACCTAGTGCAG”, the binding signal was 23500 fluorescence intensity (a.u.). For “GCCGCACCGGTCGGTTTCAGCGCGTGTGACACGCAGATTCCGGAGTCACCTAGTGCAG”, the binding signal was 3500 fluorescence intensity (a.u.). For “AATTCAATGTGCGACGGTGACGACATGAGTGATAGGACTACGGAGTCACCTAGTGCAG”, the binding signal was 3590 fluorescence intensity (a.u.). In the case of “AGAAGAGAATGGAGTGGAGCTGACATGTGGGCTCCACCATCGGAGTCACCTAGTGCAG”, the binding signal was 3950 fluorescence intensity (a.u.). “CCTTTCCCTCTCCACTCTCCACCATCCTCTGCAGCTGACTCGGAGTCACCTAGTGCAG” was tested, and the binding signal was 3330 fluorescence intensity (a.u.). For “ATATTTTGCCTGTACTGTTTGACAACTCATCTTATTCAAACGGAGTCACCTAGTGCAG”, the binding signal was 4120 fluorescence intensity (a.u.). With “CTCCACGCGGTGCCACTTGTCCGTCTTCTCCTCCTGCTCCCGGAGTCACCTAGTGCAG” the binding signal was 3210 fluorescence intensity (a.u.). With “GCATCTGAACGTGTCGAGTCACACCTGTCTGTTAGGTCCGCGGAGTCACCTAGTGCAG” the binding signal was 6560 fluorescence intensity (a.u.).

Reference: paper PMC7819943, “Rice protein-binding microarrays: a tool to detect cis-acting elements near promoter regions in rice”
